Results are given in words; binding and its absence hold for the method and conditions named. Binding seen in cells or lysates may run through a third protein. Some binding calls cover weakened binding; strength is not graded here.
What was measured:
[1] = biological target: T1, Deltex2 (mouse (endogenous in C2C12)) (UniProt Q8R3P2); assay: co-IP; Supplementary Figure S3C; cells and precipitating antibody not shown
T1 sequence: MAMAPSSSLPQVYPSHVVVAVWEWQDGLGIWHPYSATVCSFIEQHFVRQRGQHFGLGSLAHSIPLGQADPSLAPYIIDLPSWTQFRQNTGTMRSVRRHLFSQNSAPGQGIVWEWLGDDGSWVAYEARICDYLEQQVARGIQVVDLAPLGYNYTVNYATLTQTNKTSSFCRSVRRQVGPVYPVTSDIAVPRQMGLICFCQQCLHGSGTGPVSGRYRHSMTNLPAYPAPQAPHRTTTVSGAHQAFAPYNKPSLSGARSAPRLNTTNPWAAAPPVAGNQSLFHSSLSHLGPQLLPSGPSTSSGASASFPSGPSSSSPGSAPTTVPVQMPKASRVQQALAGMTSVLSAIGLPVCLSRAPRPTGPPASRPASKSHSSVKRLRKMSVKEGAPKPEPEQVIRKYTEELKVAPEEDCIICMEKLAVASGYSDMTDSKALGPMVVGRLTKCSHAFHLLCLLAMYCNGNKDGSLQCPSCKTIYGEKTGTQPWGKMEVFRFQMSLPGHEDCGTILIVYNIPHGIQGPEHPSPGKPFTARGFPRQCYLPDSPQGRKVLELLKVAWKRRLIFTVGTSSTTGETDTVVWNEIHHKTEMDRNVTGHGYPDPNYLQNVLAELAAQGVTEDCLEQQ

Amino acid sequences for entries named in this document (tags omitted). A change or cut given only in a name is not applied to a line headed by its entry. Chains listed by the source or under a name are the forms on record and can include a tag or linker.
JMJD1C (Q69ZK6, form named): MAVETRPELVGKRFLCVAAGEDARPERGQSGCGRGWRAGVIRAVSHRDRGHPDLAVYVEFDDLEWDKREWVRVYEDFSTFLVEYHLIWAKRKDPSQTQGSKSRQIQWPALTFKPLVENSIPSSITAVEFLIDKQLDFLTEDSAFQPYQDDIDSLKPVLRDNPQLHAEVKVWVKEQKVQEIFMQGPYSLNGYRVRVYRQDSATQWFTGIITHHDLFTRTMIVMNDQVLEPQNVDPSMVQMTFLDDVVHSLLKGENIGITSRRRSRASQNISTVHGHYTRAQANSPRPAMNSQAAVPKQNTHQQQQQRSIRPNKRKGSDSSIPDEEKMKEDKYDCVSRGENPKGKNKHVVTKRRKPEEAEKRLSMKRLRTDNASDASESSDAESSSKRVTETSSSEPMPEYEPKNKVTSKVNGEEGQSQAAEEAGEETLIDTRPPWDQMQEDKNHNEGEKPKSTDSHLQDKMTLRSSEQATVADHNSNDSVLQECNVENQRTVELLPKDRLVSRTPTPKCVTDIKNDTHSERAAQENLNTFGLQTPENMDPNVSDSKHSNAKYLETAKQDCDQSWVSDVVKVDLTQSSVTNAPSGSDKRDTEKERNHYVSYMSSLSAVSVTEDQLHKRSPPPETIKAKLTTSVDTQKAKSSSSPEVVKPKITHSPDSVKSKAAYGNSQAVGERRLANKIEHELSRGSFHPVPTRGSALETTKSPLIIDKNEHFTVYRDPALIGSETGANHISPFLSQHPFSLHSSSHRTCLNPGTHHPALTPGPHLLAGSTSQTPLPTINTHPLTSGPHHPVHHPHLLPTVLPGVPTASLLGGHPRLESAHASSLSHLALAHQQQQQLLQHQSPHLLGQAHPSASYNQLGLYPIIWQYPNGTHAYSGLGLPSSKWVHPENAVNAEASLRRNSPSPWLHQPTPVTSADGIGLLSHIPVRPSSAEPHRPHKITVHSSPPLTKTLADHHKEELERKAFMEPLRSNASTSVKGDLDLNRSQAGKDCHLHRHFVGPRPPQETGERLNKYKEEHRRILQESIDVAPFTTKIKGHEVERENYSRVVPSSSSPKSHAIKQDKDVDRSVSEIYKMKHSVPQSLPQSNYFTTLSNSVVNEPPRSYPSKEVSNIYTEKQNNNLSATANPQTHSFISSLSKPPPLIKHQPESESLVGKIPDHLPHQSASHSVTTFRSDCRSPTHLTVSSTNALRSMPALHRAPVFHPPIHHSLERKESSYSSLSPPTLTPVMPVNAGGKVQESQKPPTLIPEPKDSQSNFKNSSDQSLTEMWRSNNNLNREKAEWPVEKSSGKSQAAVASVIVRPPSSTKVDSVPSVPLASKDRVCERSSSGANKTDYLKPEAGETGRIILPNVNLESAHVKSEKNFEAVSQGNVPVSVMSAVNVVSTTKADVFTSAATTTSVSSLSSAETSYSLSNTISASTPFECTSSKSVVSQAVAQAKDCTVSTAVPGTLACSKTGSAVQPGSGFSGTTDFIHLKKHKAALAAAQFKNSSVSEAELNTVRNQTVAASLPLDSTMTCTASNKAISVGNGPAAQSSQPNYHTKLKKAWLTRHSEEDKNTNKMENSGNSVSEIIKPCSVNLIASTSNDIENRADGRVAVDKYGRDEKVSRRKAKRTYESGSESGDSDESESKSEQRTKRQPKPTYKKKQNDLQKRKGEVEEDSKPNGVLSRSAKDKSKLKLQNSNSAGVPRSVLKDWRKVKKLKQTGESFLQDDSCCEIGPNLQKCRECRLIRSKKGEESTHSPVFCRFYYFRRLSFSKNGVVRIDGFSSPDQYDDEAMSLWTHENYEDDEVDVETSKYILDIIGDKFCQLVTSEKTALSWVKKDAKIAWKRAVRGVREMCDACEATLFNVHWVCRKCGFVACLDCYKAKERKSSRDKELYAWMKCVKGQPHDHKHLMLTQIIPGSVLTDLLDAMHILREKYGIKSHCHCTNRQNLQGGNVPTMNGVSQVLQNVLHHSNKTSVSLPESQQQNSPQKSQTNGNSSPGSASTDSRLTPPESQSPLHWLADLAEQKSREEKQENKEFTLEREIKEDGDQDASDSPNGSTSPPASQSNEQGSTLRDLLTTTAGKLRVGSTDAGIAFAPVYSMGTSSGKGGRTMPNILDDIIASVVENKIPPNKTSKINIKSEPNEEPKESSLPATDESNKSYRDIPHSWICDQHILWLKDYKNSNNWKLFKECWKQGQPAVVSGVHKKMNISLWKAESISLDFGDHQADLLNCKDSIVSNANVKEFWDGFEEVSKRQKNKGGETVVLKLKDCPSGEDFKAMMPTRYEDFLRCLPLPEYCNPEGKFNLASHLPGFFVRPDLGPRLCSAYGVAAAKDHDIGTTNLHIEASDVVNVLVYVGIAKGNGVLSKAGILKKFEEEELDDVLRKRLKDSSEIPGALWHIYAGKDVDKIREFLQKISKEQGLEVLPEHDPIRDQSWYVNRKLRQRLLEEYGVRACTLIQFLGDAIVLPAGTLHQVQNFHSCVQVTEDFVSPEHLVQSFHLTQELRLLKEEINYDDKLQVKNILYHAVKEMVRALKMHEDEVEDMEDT
UniProt P10085: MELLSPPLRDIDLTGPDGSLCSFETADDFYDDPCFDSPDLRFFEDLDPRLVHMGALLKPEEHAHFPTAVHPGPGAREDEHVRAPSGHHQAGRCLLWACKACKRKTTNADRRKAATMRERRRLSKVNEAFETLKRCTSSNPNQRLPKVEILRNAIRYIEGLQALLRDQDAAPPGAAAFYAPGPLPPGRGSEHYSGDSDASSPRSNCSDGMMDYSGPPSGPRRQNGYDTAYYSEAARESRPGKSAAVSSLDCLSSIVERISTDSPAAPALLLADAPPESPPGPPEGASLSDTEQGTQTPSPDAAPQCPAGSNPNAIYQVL

[2] = biological target: T1, Deltex2 (mouse (endogenous in C2C12)); assay: co-IP; lysates of C2C12 cells differentiated for 1 d; Dynabeads Protein G coated with anti-Deltex2 or anti-MyoD antibody, lysate incubated overnight at 4°C, 3 washes; western blot

binding [1] | binding [2] | Substance
binds |  | JMJD1C (from UniProt Q69ZK6 1-2531)
 | binds | MyoD (from UniProt P10085 1-318)
